The source of these data is the RNAGym collection of RNA variant scans (doi:10.1126/science.aae0568).

B1: tRNA (parent)
chain: GUUCCGUUGGCGUAAUGGUAACGCGUCUCCCUCCUAAGGAGAAGACUGCGGGUUCGAGUCCCGUACGGAACG

Variants at the background level are over-represented here. A value given as a limit tells only on which side of the number the result lay.

In this data set the parent is B1. In words: yeast fitness relative to wild type (ratio to wild type); higher = fitter; tRNA-Arg(CCU), competitive growth, 37 C, YPD. A digest of the protocol: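 Gene amplicons from the start population and from each of six end populations were read by 100-nucleotide paired-end sequencing. Those end populations came from pooled Saccharomyces cerevisiae strains carrying tRNA-Arg(CCU) gene variants at the native locus, competed in YPD at 37°C for 24 hours. Fitness relative to wild type was worked out from changes in genotype frequencies. Genotypes needed ≥ 100 starting reads, and estimates < 0.5 were set to 0.5.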
With A20U C24G A45G, the yeast fitness is at most 0.5.
The result for U2C G44A U64G reads at most 0.5.
The result for C5A C33A G39C C49U U54A A70U reads at most 0.5; that for U8A U32G A37G, at most 0.5; that for G10A C34G A36G C60G, at most 0.5.
The result for G17C C24A A36U G41C reads at most 0.5.
C4U U16A A37C G48C: the yeast fitness was at most 0.5.
Next, C4G C24U C33G C62U A65U C66U A69C: at most 0.5.
Next, C5A G9A C31A C55A C61A G63A: at most 0.5.
A21U A57U: the yeast fitness was found to be 0.61.
Consider U13C A45C, for which the yeast fitness is 0.853.
Next, A21C C24U C30U C55U: at most 0.5.
The result for A20U U28C U54A A69U reads at most 0.5.
A15C G25A A43C: the yeast fitness was at most 0.5.
The result for U35A G41A C66G reads at most 0.5.
The result for G56U G63A A65G reads at most 0.5.
The result for C5U C33U C62A reads 0.579.
As to A21U C22U G56A, the yeast fitness is at most 0.5.
Next, A42U G63A A65G: 0.572; G44C A45U C66A: at most 0.5.
The result for A14G C22G C30G G68A reads at most 0.5.
Next, G12C A42G A70U: 0.592.
Regarding C4G C24A C46U C60A, the yeast fitness came to 0.521.
Next, G9C C27U C33G G50A A57G G68C: at most 0.5; G10C G41A C62U: at most 0.5.
Next, G44C C49G A57C: at most 0.5; G6A C11U C55A C62G A65U: at most 0.5; G10A U13A C29U C49G: at most 0.5.
Next, U3A A40C G67C: at most 0.5.
Take C22G A42U G67A: the yeast fitness was at most 0.5.
The result for G12C A45C C61A reads 0.686; that for U7A A14C C22G C27U U47A G48C, at most 0.5; that for C5U A14G C61G, at most 0.5.
Turning to A40C G63A A69C, the yeast fitness is at most 0.5.
Turning to U3A U19A C46A G56A, the yeast fitness is 0.564.
With C4U C49A C66U, the yeast fitness amounted to 0.612.
Next, G12A A14C A43C A45G: at most 0.5.
Next, G10C C33U: at most 0.5.
Next, U13C G23C A36C G39A A43G: at most 0.5; C5G G6A C31U C49G: at most 0.5; A20C C27U A37C A42G C66U: at most 0.5.
For G6A C11U G68A, the yeast fitness was at most 0.5.
As to U2C C4U A21C A43G C60G A65G, the yeast fitness is at most 0.5.
Next, C5U C22U C34U G41A A45G: at most 0.5; U2A U13G A40C G41C: at most 0.5; C24U A45C C55U G67C: at most 0.5.
The result for G18C C31A C34A G44A G52C C61G reads at most 0.5.
For C31U C46A, the yeast fitness amounted to 1.01.
On to C31G C34G A43U G68C A69G, for which the yeast fitness was at most 0.5.
Next, C27U C34G A45U U53A C60A: at most 0.5; C4A U26A U32G U53A C62A G68C: at most 0.5; U16C U19C G44C G56C: at most 0.5.
Consider U13A G23A U28A C31G C61A A69G, for which the yeast fitness is at most 0.5.
Regarding A20C C24U G56C C60G, the yeast fitness is at most 0.5.
Next, A20G A37C A57U: at most 0.5; U19A C30G A36G C61G: at most 0.5.
The result for G10A G39A reads 0.784; that for G17C C24U C49U U59A, 0.533; that for C4U A21C C30A C31G U32C G41C, at most 0.5.
Next, C34A G67C: 0.782.
Consider C4G C49G G58C, for which the yeast fitness is at most 0.5.
The result for U3A A14C C60A reads at most 0.5; that for C34G G39C C49U A65C A69C, at most 0.5.
In the case of A14C C27G C46G C60G A65G, the yeast fitness was at most 0.5.
For the variant C11G C33U A42C A43C C49U A69U, the yeast fitness is at most 0.5.
The result for U7A A20C A21G G23A reads 0.65; that for A21G G67A, 0.956; that for C27G C33G G51C A65U, at most 0.5.
Next, C22U C24U A37U G51A U54A U59C: at most 0.5; C11G G51C A65G A69U: at most 0.5; A36U A37U: 0.587.
As to U28A U32G C55G A65C, the yeast fitness was at most 0.5.
The result for C5G A36C G52C A57C G63C reads at most 0.5; that for C5A G17A C46A C55G, at most 0.5.
For U59A G68A, the yeast fitness worked out at 0.791.
Next, U3G C4U U35A A57G: at most 0.5; G23C C34G A36U U54G C62G: at most 0.5.
The result for G17A C30U C34A A40G C66U reads at most 0.5; that for C27A G38C G51C A69U, at most 0.5; that for U3C C60A C61G A65C, at most 0.5.
Next, C4G C31A C33G G51C G52A C60G: at most 0.5; U2A C27U A36C C61A: at most 0.5; U2G C31U G48C G67C: 0.702.
On to C11U C29A A36U G50C C62U, for which the yeast fitness was at most 0.5.
The result for U3A G56A reads 1.02; that for A14G A20G A42U, 0.696; that for C4A U13A C55U A69C, at most 0.5.
Next, A42C G50C G68C: at most 0.5; U2G U54G A57C C62U: at most 0.5.
Next, C11U C30A C31U A45C C55G: at most 0.5; G6A A20C A36C U47A G48C U54G A65C: at most 0.5.
Consider U7A C31A A65G, for which the yeast fitness is at most 0.5.
With C5G U8C A15G G18C G67A, the yeast fitness was at most 0.5.
Consider C33G C49G C55U, for which the yeast fitness is at most 0.5.
The result for A14U G18A reads at most 0.5.
G10C C11U A20C A57U: the yeast fitness is at most 0.5.
Next, A36C G51C: at most 0.5; G6A U54C A57U G58A A65U: at most 0.5; C5A U7C C29U C66U: at most 0.5.
The result for C24A C29G A45C A57U A65C reads at most 0.5; that for U13C G18A A40G, at most 0.5.
The result for C30U C31U A37G A43G reads at most 0.5; that for G6A C29A G67C, at most 0.5; that for G12A C29A A57U, at most 0.5.
C30U C34U G52A C60U: the yeast fitness was at most 0.5.
The result for U8C A21U U32A C55G reads 0.517; that for G12C G17A C29A G44A, at most 0.5; that for A21U C30G C55A A69U, at most 0.5.
The result for C11U C31U U64A A70G reads at most 0.5.
Next, U3C U19A C22U G63A: at most 0.5; C33U A43U C46G: at most 0.5; G9C U19C G48A U64C: 0.609.
As to A14U A20C C33A, the yeast fitness is at most 0.5.
Next, C11G C31A C55U: at most 0.5; U8A A40U A70U: at most 0.5.
Next, C11A C27G U35C G50A: at most 0.5.
Next, C29A G56C A57G G68U: at most 0.5; C11A A40C: 0.708.
On to C22G C24U U35G G38A G52C, for which the yeast fitness was at most 0.5.
On to C5G C24A A42U A57C U64A, for which the yeast fitness is at most 0.5.
Turning to C4G C27A C46U, the yeast fitness is 0.539.
The result for G18C U47C reads 0.658; that for C5U C30U G39C, at most 0.5.
Regarding U3C A36U G39A C60A, the yeast fitness was at most 0.5.
The result for U7G C27U C61A G63A reads at most 0.5.
Next, U19A G44C G68C: at most 0.5; A21G C22A A37G A42U C49G A57U: at most 0.5; U16C C24G A42C C62U: at most 0.5.
The result for U26A C27A C31U reads at most 0.5.
On to U2C C11U G12A A15G G48C A65C, for which the yeast fitness is at most 0.5.
The result for C11G A14G G39C C55U A70G reads at most 0.5.
Next, C30G C33U A42U A43G G48C: at most 0.5; C4A U28C A57G C61A: at most 0.5; C55A G68C: 0.674.
Next, C29U A36U U54C C55A C62G A69G: at most 0.5; G12A C34G A70U: at most 0.5; U19C C60A: 0.547.
With U7C G12A A20C C24A C27A A36C, the yeast fitness was at most 0.5.
Next, G12A C24A C34A C49A G63U G67A: at most 0.5.
The result for C22G A40U C46A reads at most 0.5; that for C5G U13A G23A G38A, at most 0.5; that for C30A G38A A42C G51C C60U G67A, at most 0.5.
For the variant U2A U13A A14C C33U G63A, the yeast fitness is at most 0.5.
Turning to C4G G23C C24G A70G, the yeast fitness was at most 0.5.
The result for C5G G6A A42U reads at most 0.5.
Next, C5G A14G C33A C55G: at most 0.5; G6C A37U C49U: at most 0.5.
Next, A40U A42C C55U A70U: at most 0.5.
On to U2C C24G C30U A40G G44A U47C G51C, for which the yeast fitness was at most 0.5.
Next, A15C A43C G58A: at most 0.5; C5U U8C C27U G48A C55A G63A: at most 0.5; G41A C55G C62U C66U: at most 0.5.
The result for C22U A37G A45U G52A G68A reads at most 0.5.
The result for G23C C66G reads at most 0.5; that for C4A A36C A40G C49U, at most 0.5.
Consider G6A U13A A15G U28C, for which the yeast fitness is at most 0.5.
The result for G6C A20C A21G C66G reads at most 0.5.
With C11G A14G A21C C30U C33A A43G, the yeast fitness is at most 0.5.
Next, C5U G18A: 0.76.
For A45U A65C G68A, the yeast fitness came out at 0.567.
The result for U32G G56A G63C reads at most 0.5; that for G25A G51C U53C, at most 0.5; that for G12A U19C C29U C34A, at most 0.5.
Next, G12A C31G A45G G56U: at most 0.5.
The result for U2C G17A A37C reads 0.791.
C5G C11G G23A G51U A57G: the yeast fitness is at most 0.5.
Next, G9A C11G U47C C55U G68C: at most 0.5.
